According to PubChem BioAssay AID493014 (National Center for Advancing Translational Sciences (NCATS), 2011):
This is one part of the list. These are further read-outs of the screen, such as a control signal, another cell line or another target. No call is given for them. The list favours compounds with an active or inconclusive main result. The note in brackets gives the kind of curve behind each potency; many fits are weak.

Experiment: qHTS Assay to Find Inhibitors of Chronic Active B-Cell Receptor Signaling
Settings: ABC-DLBCL IkBa-CBG/CBR reporter, luminescence ratio (green luciferase fused to IkBa over red control in TMD8 lymphoma cells), 4 h
Procedure, shortened: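 TMD8 ABC-DLBCL cells carrying doxycycline-inducible green luciferase fused to IkappaBalpha plus unfused red luciferase were exposed to compounds (up to 46 uM) for 4 hrs at 37C. Activity came from the overlap-corrected green/red luminescence ratio.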

[1] = measured here: CBR red luminescence, cell number
[2] = measured here: IkBa-CBG green luminescence

SMILES	AC50 [1]	AC50 [2]
O=C(Nc1ccc(N2CCCCC2)cc1)c1cc(S(=O)(=O)N2CCOCC2)ccc1F	7.31 µM [falling, partial curve, poor fit]	
Cc1nc(C(=O)NC2CCOCC2)sc1C1(C)CC(c2cccc([N+](=O)[O-])c2)=NO1 (stereo not given)	0.708 µM [rising, full curve, poor fit]	
Cc1sc2nc(SCC(=O)NCc3ccco3)n(Cc3ccccc3)c(=O)c2c1C	18.4 µM [falling, single point]	
O=C(COC(=O)c1ccc(F)c(S(=O)(=O)N2CCOCC2)c1)NCCc1ccc(F)cc1	18.4 µM [falling, single point]	
O=C(CSc1nc2ccc(NC(=O)c3ccccc3C(=O)O)cc2s1)Nc1ccc(F)c([N+](=O)[O-])c1	11.2 µM [falling, single point]	
CCc1nc2ccc(C(=O)N(C)CC(=O)Nc3ccccc3C(F)(F)F)cc2nc1CC	2.06 µM [rising, partial curve, poor fit]	
CCOC(=O)C(NC(C)=O)(Nc1ccc(S(=O)(=O)Nc2onc(C)c2C)cc1)C(F)(F)F (stereo not given)	6.51 µM [rising, full curve, poor fit]	
CSCCNCc1cn(-c2ccc(F)cc2F)nc1-c1ccccc1C	0.178 µM [rising, full curve, poor fit]	
COC(=O)Cc1cc(=O)n2[nH]c(C)cc2n1	7.31 µM [falling, single point]	
CNC(=O)c1sc2nc(-c3ccc(OC)cc3)cn2c1C	0.58 µM [rising, full curve, poor fit]	
Cc1cccc(C(=O)NCC(=O)OCC(=O)N2CCCCC2)c1	35.5 µM [rising, single point]	
Cc1ccc(-c2cccc(CN3CCN(C(C)C)C(CCO)C3)c2)o1 (stereo not given)	7.94 µM [rising, partial curve, poor fit]	
Cc1ccc(S(=O)(=O)Nc2nc3ccccc3s2)cc1	20.6 µM [rising, single point]	
C/C(=N\Nc1nc(C(C)(C)C)cs1)c1ccccc1	31.6 µM [falling, single point]	
CC/C=C/C(=O)N1CC2(CC(c3cccc(NC(=O)c4ccccc4)c3)=NO2)C[C@@H]1C(N)=O (stereo not given in full)	15.8 µM [falling, single point]	
NC(=O)c1ccsc1NC(=O)c1coc2ccccc2c1=O	0.562 µM [rising, full curve, poor fit]	
CCOC(=O)C1CCN(Cc2c(O)ccc3ccccc23)CC1		23.1 µM [rising, partial curve, poor fit]
CCSCc1nc(N)nc(NCCc2ccccc2)n1	35.5 µM [falling, single point]	
NC(=O)C1CC(=O)N(c2ccc(OCc3ccc(Cl)cc3Cl)cc2)C1 (stereo not given)	6.31 µM [rising, single point]	
COC(=O)Nc1nc(-c2ccccc2)c(C(=O)c2ccc(Cl)cc2)s1	5.17 µM [rising, single point]	3.26 µM [falling, partial curve, poor fit]
O=c1[nH]c(=O)c2nnc(N/N=C\c3ccc(O)cc3)nc2[nH]1	35.5 µM [falling, single point]	

Reprinted at random: 2 compounds from above, in no set order.
SMILES	AC50 [1]	AC50 [2]
Cc1cccc(C(=O)NCC(=O)OCC(=O)N2CCCCC2)c1	35.5 µM [rising, single point]	
NC(=O)c1ccsc1NC(=O)c1coc2ccccc2c1=O	0.562 µM [rising, full curve, poor fit]	

The list goes on.

SMILES	AC50 [1]	AC50 [2]
CCc1cccc(NC(=O)CCCSc2nc3ccccc3[nH]2)c1	20.6 µM [falling, partial curve, poor fit]	
COc1ccc(C(=O)Nc2ccc(C(=O)OCC(=O)c3cccc4ccccc34)cc2)cc1	4.11 µM [falling, full curve, poor fit]	
O=C(/C=C/c1ccccc1)Nc1cc(S(=O)(=O)N2CCOCC2)ccc1N1CCCC1	0.13 µM [rising, full curve, poor fit]	
Cc1cccc(NC(=S)Nc2ccc(Br)cc2)c1	5.62 µM [rising, single point]	
COc1ccc2oc(=O)c(-c3csc(Nc4cccc(O)c4)n3)cc2c1	5.17 µM [falling, partial curve, poor fit]	
COc1cc(C2C(C#N)=C(N)N(Nc3ccccc3)C3=C2C(=O)CC(C)(C)C3)ccc1OCc1cccc(F)c1 (stereo not given)	7.08 µM [falling, partial curve]	
O=C(NNc1ccc([N+](=O)[O-])cc1)C1C2CCCCC21 (stereo not given)	20.6 µM [rising, partial curve, poor fit]	
CC(C)n1nccc1NC(=O)COC(=O)c1ccc(NC(N)=O)cc1	25.9 µM [rising, single point]	
COc1ccc(S(=O)(=O)Nc2nnc(C(C)C)s2)cc1	2.59 µM [rising, single point]	
CC1CCCCN1C(=O)Cn1c(=O)oc2cc(S(=O)(=O)N3CCCC3)ccc21 (stereo not given)	5.01 µM [falling, single point]	
O=C(NC(=O)c1ccccc1)NC(=O)c1ccccc1	23.1 µM [falling, single point]	
COc1ccc(C(=O)Nc2cccc3ccccc23)cc1	20 µM [falling, partial curve, poor fit]	
C/C(=N/NC(=O)CNC(=O)c1ccncc1)c1ccc(Cl)cc1	35.5 µM [rising, single point]	
CC1(C)COC(c2ccc(F)c([N+](=O)[O-])c2)=N1	29.1 µM [falling, single point]	13 µM [rising, partial curve, poor fit]
CC(C)OC(=O)/C(C#N)=C/c1cn(Cc2ccccc2)c2ccccc12	6.51 µM [rising, partial curve, poor fit]	
COc1ccc(/C=C(\C#N)C(=O)Nc2ccccn2)cc1	6.31 µM [rising, single point]	
O=C(CCn1nc(-c2ccccc2)ccc1=O)N1CCCC1	16.4 µM [rising, partial curve]	
O=C1CC(c2cccc(Cl)c2)CC(O)=C1C=Nc1ccccc1 (stereo not given)	25.9 µM [rising, single point]	
CNCc1ccccc1Sc1ccc(O)c(O)c1	3.26 µM [rising, single point]	6.51 µM [falling, partial curve, poor fit]
CSc1nncn1/N=C/c1ccc([N+](=O)[O-])cc1	22.4 µM [rising, single point]	
Cc1nc(C)c(-c2csc(Nc3ccc(O)c(C(=O)O)c3)n2)s1	15.8 µM [falling, single point]	

SMILES	AC50 [1]	AC50 [2]
Cc1cc(C)nc(Nc2nc(-c3ccccc3)cs2)n1	1.58 µM [falling, full curve]	
COc1ccc(N=NC2C(=O)N(c3ccccc3)N=C2C)cc1 (stereo not given)	11.2 µM [falling, partial curve, poor fit]	
Cc1cccc(NC(=S)N(CCCN2CCOCC2)Cc2cn(C)c3ccccc23)c1	7.31 µM [rising, partial curve, poor fit]	
O=C(Nc1nnc(CSCc2ccc(Cl)cc2)s1)c1cccc([N+](=O)[O-])c1	2.31 µM [rising, single point]	
COc1ccc(CC(=O)Nc2ccc(N3CCN(c4ccc(OC)cc4)CC3)c(C#N)c2)cc1	0.206 µM [rising, full curve, poor fit]	
CCCCOC(=O)Nc1ccc(C(C)C)cc1	0.184 µM [rising, partial curve, poor fit]	
COc1ccc(C)cc1N1CC(C(=O)OCc2nc(N)nc(Nc3ccccc3C)n2)CC1=O (stereo not given)	29.1 µM [rising, single point]	
Cc1ccc(N(C)S(=O)(=O)c2cc3c(cc2C)NC(=O)CO3)cc1	12.6 µM [rising, partial curve, poor fit]	
Cc1ccc(NC(NC(=O)Cc2ccccc2)C(Cl)(Cl)Cl)cc1 (stereo not given)	23.1 µM [falling, single point]	
O=C(COc1ccccc1)NCC(c1cccs1)S(=O)(=O)c1ccc(Cl)cc1 (stereo not given)	25.1 µM [falling, single point]	
C[C@@H]1CC[C@]2(C(=O)O)CC[C@]3(C)C(=CCC4[C@@]5(C)CC[C@H](O)[C@@](C)(C(=O)O)C5CC[C@]43C)C2[C@]1(C)O (stereo not given in full)	32.6 µM [rising, partial curve, poor fit]	
O=C(Nc1ccccc1F)c1ccc(S(=O)(=O)N2CCCCCC2)cc1	18.4 µM [falling, partial curve]	
COc1ccc(N2CCN(C(=O)c3ccc(CS(=O)(=O)c4ccc(OC)cc4)o3)CC2)cc1	23.1 µM [rising, single point]	
CC(C)(C)c1ccc(/C=N/Nc2nncn2N)cc1	35.5 µM [falling, single point]	
CCCCn1nnc(NC(=O)CC23CC4CC(CC(C4)C2)C3)n1	29.1 µM [rising, single point]	
COc1cc(/C=C2\COC/C(=C\c3ccc(O)c(OC)c3)C2=O)ccc1O	3.98 µM [falling, partial curve, poor fit]	
Cc1cccc(OCc2nnc(NC(=O)c3cccs3)s2)c1	5.8 µM [rising, full curve, poor fit]	
O=C1/C(=C/c2cccc([N+](=O)[O-])c2)Oc2cc(O)ccc21	1.12 µM [rising, full curve, poor fit]	
COc1cccc(C(c2nnnn2Cc2ccco2)N2CCN(c3cccc(C)c3C)CC2)c1OC (stereo not given)	35.5 µM [falling, single point]	
CC(=O)N1CCN(S(=O)(=O)c2ccc(S(=O)(=O)NCC(C)C)cc2)CC1	2.91 µM [falling, partial curve, poor fit]	
